# Some of the results follow.
# Assays:
# Assay in all cases: glycan array binding signal (z-score within array); higher = stronger binding
# Details in all cases: glycan notation: IUPAC condensed, linker removed
# [1] = target: Neu5Ac(a2-6)Gal(b1-4)GlcNAc(b1-6)[Gal(b1-3)GlcNAc(b1-3)]Gal(b1-4)Glc
# Outline: (§1)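 Glycan array binding is given as a within-array Z-score, which can be read as non-binding when negative. The arrays, 3228 of them, came from the Consortium for Functional Glycomics database and were retained only where the protein sequence was available. Z-scores were averaged across arrays of the same protein sequence at different concentrations or buffers and across linkers.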
# [2] = target: Neu5Ac(a2-6)Gal(b1-4)GlcNAc(b1-6)[Gal(b1-3)]GalNAc
# Outline: as §1
# [3] = target: Neu5Ac(a2-6)Gal(b1-4)GlcNAc6S
# Outline: as §1
# [4] = target: Neu5Ac(a2-6)GalNAc
# Outline: as §1
# [5] = target: Neu5Ac(a2-6)GalNAc(b1-4)GlcNAc
# Outline: as §1
# [6] = target: Neu5Ac(a2-6)GalNAc(b1-4)GlcNAc6S
# Outline: as §1
# [7] = target: Neu5Ac(a2-6)GlcNAc(b1-4)GlcNAc
# Outline: as §1
# [8] = target: Neu5Ac(a2-6)GlcNAc(b1-4)GlcNAc(b1-4)GlcNAc
# Outline: as §1
# [9] = target: Neu5Ac(a2-8)Neu5Ac
# Outline: as §1
# [10] = target: Neu5Ac(a2-8)Neu5Ac(a2-3)Gal(b1-3)GalNAc(b1-4)[Neu5Ac(a2-3)]Gal(b1-4)Glc
# Outline: as §1
# [11] = target: Neu5Ac(a2-8)Neu5Ac(a2-3)Gal(b1-3)GalNAc(b1-4)[Neu5Ac(a2-8)Neu5Ac(a2-3)]Gal(b1-4)Glc
# Outline: as §1
# [12] = target: Neu5Ac(a2-8)Neu5Ac(a2-3)Gal(b1-4)Glc
# Outline: as §1
# [13] = target: Neu5Ac(a2-8)Neu5Ac(a2-3)Gal(b1-4)GlcNAc
# Outline: as §1
# [14] = target: Neu5Ac(a2-8)Neu5Ac(a2-3)[Gal(b1-3)GalNAc(b1-4)]Gal(b1-4)Glc
# Outline: as §1
# [15] = target: Neu5Ac(a2-8)Neu5Ac(a2-3)[GalNAc(b1-4)]Gal(b1-4)Glc
# Outline: as §1
# [16] = target: Neu5Ac(a2-8)Neu5Ac(a2-8)Neu5Ac
# Outline: as §1
# [17] = target: Neu5Ac(a2-8)Neu5Ac(a2-8)Neu5Ac(a2-3)Gal(b1-4)Glc
# Outline: as §1
# [18] = target: Neu5Ac(a2-8)Neu5Ac(a2-8)Neu5Ac(a2-3)[Gal(b1-3)GalNAc(b1-4)]Gal(b1-4)Glc
# Outline: as §1
# [19] = target: Neu5Ac(a2-8)Neu5Ac(a2-8)Neu5Ac(a2-3)[GalNAc(b1-4)]Gal(b1-4)Glc
# Outline: as §1
# [20] = target: Neu5Ac(a2-8)Neu5Ac(a2-8)Neu5Ac(a2-8)Neu5Ac(a2-3)[GalNAc(b1-4)]Gal(b1-4)Glc
# Outline: as §1
# [21] = target: Neu5Ac(a2-8)Neu5Gc(a2-3)Gal(b1-4)GlcNAc
# Outline: as §1
# [22] = target: Neu5Ac(b2-6)Gal(b1-4)GlcNAc
# Outline: as §1
# [23] = target: Neu5Ac(b2-6)GalNAc
# Outline: as §1
# [24] = target: Neu5Ac9Ac(a2-3)Gal(b1-3)GlcNAc
# Outline: as §1
# [25] = target: Neu5Ac9Ac(a2-3)Gal(b1-4)GlcNAc
# Outline: as §1
# [26] = target: Neu5Ac9Ac(a2-6)Gal(b1-4)GlcNAc
# Outline: as §1
# [27] = target: Neu5Gc(a2-3)Gal(b1-3)GlcNAc
# Outline: as §1
# [28] = target: Neu5Gc(a2-3)Gal(b1-3)[Fuc(a1-4)]GlcNAc
# Outline: as §1
# [29] = target: Neu5Gc(a2-3)Gal(b1-4)Glc
# Outline: as §1
# [30] = target: Neu5Gc(a2-3)Gal(b1-4)GlcNAc
# Outline: as §1
# [31] = target: Neu5Gc(a2-3)Gal(b1-4)GlcNAc(b1-3)Gal(b1-4)GlcNAc(b1-2)Man(a1-3)[Neu5Gc(a2-3)Gal(b1-4)GlcNAc(b1-3)Gal(b1-4)GlcNAc(b1-2)Man(a1-6)]Man(b1-4)GlcNAc(b1-4)GlcNAc
# Outline: as §1
# [32] = target: Neu5Gc(a2-3)Gal(b1-4)[Fuc(a1-3)]GlcNAc
# Outline: as §1
# [33] = target: Neu5Gc(a2-6)Gal(b1-4)GlcNAc
# Outline: as §1
# [34] = target: Neu5Gc(a2-6)GalNAc
# Outline: as §1
# [35] = target: Neu5Gc(a2-8)Neu5Ac(a2-3)Gal(b1-4)GlcNAc
# Outline: as §1
# [36] = target: Neu5Gc(a2-8)Neu5Gc(a2-3)Gal(b1-4)GlcNAc
# Outline: as §1
# [37] = target: Neu5Gc(a2-8)Neu5Gc(a2-3)Gal(b1-4)GlcNAc(b1-3)Gal(b1-4)GlcNAc
# Outline: as §1
# [38] = target: Neu5Gc(a2-8)Neu5Gc(a2-6)Gal(b1-4)GlcNAc
# Outline: as §1
binder,measurement,setting,value
FliC (Clostridium difficile) (protein) MRVNTNVSALIANNQMGRNVNGQSKSMEKLSSGVRIKRAADDAAGLAISEKMRAQIKGLDQAGRNVQDGISVVQTAEGSLEETGNILQRMRTLSLQSANEINNTEEREKIADELTQLKDEIERISSSTEFNGKKLLDGTSSTIRLQVGASYGTNVSGTSNNNNEIKIQLVNTASIMASAGITTASIGSMKAGGTTGTDAAKTMVSSLDAALKSLNSSRAKLGAQQNRLESTQNNLNNTLENVTAAESRIRDTDVASEMVNLSKMNILVQASQSMLAQANQQPQGVLQLLG,glycan array binding signal (z-score),[1],-0.577
same,glycan array binding signal (z-score),[2],-0.618
same,glycan array binding signal (z-score),[3],-0.272
same,glycan array binding signal (z-score),[4],-0.549
same,glycan array binding signal (z-score),[5],-0.478
same,glycan array binding signal (z-score),[6],0.879
same,glycan array binding signal (z-score),[7],-0.313
same,glycan array binding signal (z-score),[8],-0.86
same,glycan array binding signal (z-score),[9],-0.234
same,glycan array binding signal (z-score),[10],-0.297
same,glycan array binding signal (z-score),[11],-0.178
same,glycan array binding signal (z-score),[12],-0.262
same,glycan array binding signal (z-score),[13],-0.401
same,glycan array binding signal (z-score),[14],1.26
same,glycan array binding signal (z-score),[15],-0.626
same,glycan array binding signal (z-score),[16],-0.738
same,glycan array binding signal (z-score),[17],-0.687
same,glycan array binding signal (z-score),[18],-0.44
same,glycan array binding signal (z-score),[19],-0.651
same,glycan array binding signal (z-score),[20],-0.503
same,glycan array binding signal (z-score),[21],-0.706
same,glycan array binding signal (z-score),[22],0.365
same,glycan array binding signal (z-score),[23],-0.14
same,glycan array binding signal (z-score),[24],-0.747
same,glycan array binding signal (z-score),[25],-0.003
same,glycan array binding signal (z-score),[26],0.17
same,glycan array binding signal (z-score),[27],-0.551
same,glycan array binding signal (z-score),[28],0.28
same,glycan array binding signal (z-score),[29],0.225
same,glycan array binding signal (z-score),[30],-0.017
same,glycan array binding signal (z-score),[31],0.136
same,glycan array binding signal (z-score),[32],0.078
same,glycan array binding signal (z-score),[33],0.664
same,glycan array binding signal (z-score),[34],-0.27
same,glycan array binding signal (z-score),[35],-0.602
same,glycan array binding signal (z-score),[36],0.224
same,glycan array binding signal (z-score),[37],-0.528
same,glycan array binding signal (z-score),[38],-0.124

# In another format: results already given.
binder	measurement	setting	value
FliC (Clostridium difficile) (protein) MRVNTNVSALIANNQMGRNVNGQSKSMEKLSSGVRIKRAADDAAGLAISEKMRAQIKGLDQAGRNVQDGISVVQTAEGSLEETGNILQRMRTLSLQSANEINNTEEREKIADELTQLKDEIERISSSTEFNGKKLLDGTSSTIRLQVGASYGTNVSGTSNNNNEIKIQLVNTASIMASAGITTASIGSMKAGGTTGTDAAKTMVSSLDAALKSLNSSRAKLGAQQNRLESTQNNLNNTLENVTAAESRIRDTDVASEMVNLSKMNILVQASQSMLAQANQQPQGVLQLLG	glycan array binding signal (z-score)	[14]	1.26
same	glycan array binding signal (z-score)	[15]	-0.626
